Measured values reported in PMC11501031.
Results are given in words; binding and its absence hold for the method and conditions named. A result given as binding can be weak or reduced; the word gives no strength. Where a sequence is shown, tags or fusion partners need not be part of it.

Legend:
[1] = biological target: T1, Nanos, full length, fused to a DNA-binding domain (two-hybrid bait) (Drosophila) (UniProt P25724); assay: two-hybrid; yeast PJ69-4A; DBD fusion as bait, AD fusion as prey; lacZ reporter, beta-galactosidase measured with Beta-Glo in arbitrary light units; three transformants each; control is the empty AD vector
T1 sequence: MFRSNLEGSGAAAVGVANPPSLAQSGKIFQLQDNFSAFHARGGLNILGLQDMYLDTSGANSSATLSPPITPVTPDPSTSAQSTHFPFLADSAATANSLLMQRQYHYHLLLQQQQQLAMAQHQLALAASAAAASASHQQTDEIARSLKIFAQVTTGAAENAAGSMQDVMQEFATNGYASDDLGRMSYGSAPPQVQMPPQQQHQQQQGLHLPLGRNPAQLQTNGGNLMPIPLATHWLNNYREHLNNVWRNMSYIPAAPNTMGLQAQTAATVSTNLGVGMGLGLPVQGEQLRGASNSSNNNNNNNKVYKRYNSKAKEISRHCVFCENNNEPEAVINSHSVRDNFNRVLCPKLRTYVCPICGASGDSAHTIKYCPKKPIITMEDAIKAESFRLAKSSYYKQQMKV

[2] = biological target: Bruno fused to a DNA-binding domain (two-hybrid bait) (Drosophila); assay: as above
[3] = biological target: Bruno as expressed in the yeast four-hybrid experiments (bound to RNA bearing BREs) (Drosophila); assay: yeast four-hybrid; yeast YBZ1 (LexA-MS2 coat, lexA-op-lacZ); Bru bound to a hybrid RNA bearing wild-type BREs; recruitment of AD fusions of Nos read by beta-galactosidase (Beta-Glo); triple transformants

Molecule: Bruno fragment fused to a transcriptional activation domain (two-hybrid prey) (Drosophila) (domain or fragment)
- binding [1]: binds

Molecule: NOT4 fused to a transcriptional activation domain (two-hybrid prey) (Drosophila)
- binding [1]: binds

B1: Nanos fused to a transcriptional activation domain (protein, UniProt P25724 1-401)
chain: T1 sequence
- binding [2]: binds
- binding [3]: binds
